For at least one compound, name, drawing or mass did not settle the structure.
Tested on: tumor in the OB of the CKO model
Assay: Tumor volume in the OB of the CKO model under clozapine
Format: in vivo, mouse
Conditions: CKO littermates, clozapine alone vs without clozapine

## CN1CCN(C2=Nc3cc(Cl)ccc3Nc3ccccc32)CC1 [clozapine]
  tumor volume in the OB: promoted tumor growth

— patent US20240374610A1, “METHOD AND PHARMACEUTICAL COMPOSITION FOR TREATING OR ALLEVIATING GLIOMAS IN A SUBJECT” (Zhejiang University, priority 2023, published 2024)
